Values joined by “and” are separate entries in the source; they are usually repeats but may differ in a detail not shown here. Equal entries are not always repeated. Where two headings read alike, the source gives them in different places.
Legend:
[1] = system: RNA from Jurkat cell line; experiment: RNA isolation from Jurkat cells, glass fiber filter (NAP) protocol, solvent in binding buffer; yield/purity by A260 and A260/A280, quality by Agilent Bioanalyzer
[2] = system: RNA from white blood cells; experiment: RNA isolation from white blood cells, Stratagene Absolutely RNA kit (spin-cup protocol), solvent in binding buffer
[3] = system: RNA from white blood cells; experiment: RNA purification from white blood cells, NAP protocol, solvent in binding buffer
nucleic acid (RNA) = experiment: Testing of solvents in Absolutely RNA Miniprep kit or NAP protocol (Jurkat cells or blood); details: standard conditions
[4] = system: RNA from Jurkat cell line; experiment: RNA isolation from Jurkat cells, Absolutely RNA Miniprep Kit protocol, solvent in binding buffer
[5] = 35% final concentration in binding buffer, Jurkat, Table 5, samples 1 and 2
[6] = 35% final concentration in binding buffer, Jurkat, Table 11
[7] = 35% final concentration in binding buffer, Jurkat, Table 12
[8] = 35% final concentration in binding buffer, Jurkat, Table 14
[9] = 35% in RNA binding buffer, Jurkat, Agilent Bioanalyzer, FIG. 12A/12D
[10] = 50% final concentration in binding buffer, Jurkat, Table 7
[11] = 50% final concentration in binding buffer, Jurkat, Table 8
[12] = 35% final concentration, white blood cells, Absolutely RNA Miniprep Kit, Table 13
[13] = 50% final concentration, white blood cells, spin cup protocol, Table 10
[14] = 35% ethanol, NAP, Table 6, samples 1 and 2
[15] = 50% final concentration, NAP protocol, Table 9
[16] = 30% final concentration in binding buffer, Jurkat, Table 11
[17] = 40% final concentration in binding buffer, Jurkat, Table 11
[18] = 45% final concentration in binding buffer, Jurkat, Table 11
[19] = 25% final concentration in binding buffer, Jurkat, Table 12
[20] = 30% final concentration in binding buffer, Jurkat, Table 12
[21] = 40% final concentration in binding buffer, Jurkat, Table 12
[22] = 10% final concentration, white blood cells, Absolutely RNA Miniprep Kit, Table 13
[23] = 20% final concentration, white blood cells, Absolutely RNA Miniprep Kit, Table 13
[24] = 30% final concentration, white blood cells, Absolutely RNA Miniprep Kit, Table 13
[25] = 40% final concentration, white blood cells, Absolutely RNA Miniprep Kit, Table 13
[26] = 10% final concentration in binding buffer, Jurkat, Table 14
[27] = 15% final concentration in binding buffer, Jurkat, Table 14
[28] = 20% final concentration in binding buffer, Jurkat, Table 14
[29] = 25% final concentration in binding buffer, Jurkat, Table 14
[30] = 30% final concentration in binding buffer, Jurkat, Table 14
[31] = 40% final concentration in binding buffer, Jurkat, Table 14
[32] = 45% final concentration in binding buffer, Jurkat, Table 14

CCO [ethanol, reference compound]
A260/280 [1, 5]: 2.1 and 2.09
RNA [1, 5]: 65.81 ng/µL and 67.3 ng/µL
A260/280 [1, 6]: 2.15
RNA [1, 6]: 75.95 ng/µL
A260/280 [1, 7]: 2.05
RNA [1, 7]: 31.8 ng/µL
A260/280 [1, 8]: 2.1 and 2.09
RNA [1, 8]: 65.81 ng/µL and 67.3 ng/µL
RNA Integrity Number (RIN) [1, 9]: 7.9
RIN ([1]; 35% in binding buffer, Jurkat, Agilent Bioanalyzer, FIG. 1): 7.9
A260/280 [1, 10]: 2.03
RNA [1, 10]: 54 ng/µL
A260/280 [1, 11]: 2.03
RNA [1, 11]: 54 ng/µL
A260/280 [2, 12]: 2.02
RNA [2, 12]: 36 ng/µL
A260/280 [2, 13]: 1.21
RNA [2, 13]: 8.06 ng/µL
A260/280 [3, 14]: 2.04 and 2.24
RNA [3, 14]: 12.26 ng/µL and 9.87 ng/µL
RIN ([3]; 35%, Agilent Bioanalyzer, FIG. 2): 8.9
A260/280 [3, 15]: 1.82
RNA [3, 15]: 2.0 ng/µL

COCCOCCOCCOCCOC [tetraglyme]
A260/280 [1, 16]: 2.04
RNA [1, 16]: 91.8 ng/µL
RIN ratio ([1]; 30% in binding buffer, Jurkat, Agilent Bioanalyzer, FIG. 7): 6.8
A260/280 [1, 6]: 2.02
RNA [1, 6]: 58.69 ng/µL
A260/280 [1, 17]: 2.05
RNA [1, 17]: 65.44 ng/µL
A260/280 [1, 18]: 2.06
RNA [1, 18]: 59.87 ng/µL

O=C(O)C(Cl)(Cl)Cl [trichloroacetic acid]
yield of nucleic acid (RNA) (nucleic acid (RNA)): did not yield nucleic acid (RNA)

C1CCOC1 [tetrahydrofuran]
A260/280 [1, 19]: 2.1
RNA [1, 19]: 33.53 ng/µL
A260/280 [1, 20]: 2.12
RNA [1, 20]: 42.4 ng/µL
RIN ratio ([1]; 30% in binding buffer, Jurkat, Agilent Bioanalyzer, FIG. 8B): 9.7
A260/280 [1, 21]: 2.13
RNA [1, 21]: 43.4 ng/µL
A260/280 [2, 22]: 1.9
RNA [2, 22]: 16 ng/µL
A260/280 [2, 23]: 2.08
RNA [2, 23]: 20 ng/µL
A260/280 [2, 24]: 2.05
RNA [2, 24]: 35 ng/µL
RIN ratio ([2]; 30%, white blood cells, Agilent Bioanalyzer, FIG. 10B): 7.0
A260/280 [2, 25]: 2.03
RNA [2, 25]: 37.6 ng/µL

NC=O [formamide]
yield of nucleic acid (RNA) (nucleic acid (RNA)): did not yield nucleic acid (RNA)
quantity of material isolated compared with other solvents ([4]; FIG. 14 Panel G): an order of magnitude lower

O=S1(=O)CCCC1 [sulfolane]
A260/280 [1, 26]: 1.82
RNA [1, 26]: 3.72 ng/µL
A260/280 [1, 27]: 2.13
RNA [1, 27]: 4.55 ng/µL
A260/280 [1, 28]: 1.77
RNA [1, 28]: 4.63 ng/µL
A260/280 [1, 29]: 1.94
RNA [1, 29]: 7.42 ng/µL
A260/280 [1, 30]: 2.02
RNA [1, 30]: 27.81 ng/µL
A260/280 [1, 8]: 2.09
RNA [1, 8]: 63.8 ng/µL
RNA Integrity Number (RIN) [1, 9]: 8.7
A260/280 [1, 31]: 2.1
RNA [1, 31]: 67.79 ng/µL
RNA Integrity Number (RIN) ([1]; 40% in RNA binding buffer, Jurkat, Agilent Bioanalyzer, FIG. 12C): 8.4
A260/280 [1, 32]: 2.08
RNA [1, 32]: 70.49 ng/µL
RNA Integrity Number (RIN) ([1]; 45% in RNA binding buffer, Jurkat, Agilent Bioanalyzer, FIG. 12B): 7.9

CC(C)=O [acetone]
A260/280 [1]: 2.06 and 2.04 and 1.32

CC#N [acetonitrile]
A260/280 [1]: 2.07 and 1.74 and 2.26 and 2 and 2.28
RIN ratio [1]: 8.3
A260/280 [2]: 1.8 and 1.78 and 1.67 and 1.84 and 1.73 and 1.68

C1COCO1 [1,3-dioxolane]
RIN number ([4]; in binding buffer, concentration not given, FIG. 13): 7.1

From patent publication US20080287669A1, “METHODS AND COMPOSITIONS FOR IDENTIFYING COMPOUNDS USEFUL IN NUCLEIC ACID PURIFICATION” (priority 2007, published 2008)
